Reference: PubChem BioAssay AID686937 (Drosophila RNAi Screening Center, 2013)

Assay: 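Knock-downs that reduce output of a secreted reporter enzyme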 (primary screen)
System: Drosophila S2 cells expressing secreted horseradish peroxidase
Reagents: long dsRNA against Drosophila genes
Time to read-out: about 5.5 days (5 days dsRNA, then 12 h reporter induction)
Challenge: reporter expression induced after 5 days of dsRNA, read 12 h later; inducer not stated
Detection: 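Chemiluminescent measurement of peroxidase in the medium 12 h after reporter induction, following 5 days of dsRNA, given as a z-score per plate; higher means more secretion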
Scale: z-score: higher = more reporter secreted into medium
The screen tested about 23,000 reagents; shown is an unselected part of those that have a named target and a result. 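Reduced-secretion tags in replicate 1 do not always agree with the z-scores; no criterion for assigning the tags was given.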 Names joined by + are all predicted targets of the reagent. Not stated in the record: the amount of reagent.

gene knocked down	dsRNA	z-score, replicate 1	z-score, replicate 2	z-score, replicate 3	z-score, replicate 4	phenotype, replicate 1
CanA1	DRSC16600	0.35	0.13			
CG10073	DRSC05961	0.24	-0.15			
qjt	DRSC10060	-0.21	0.13			
aux	DRSC12161	0.2	0.34			
CG12974	DRSC11684	0.39	0.64			
Dop1R1	DRSC13020	-0.74	0.34			
Dop1R1	DRSC13021	0.56	0.48			
Dop1R1	DRSC16652	0.65	0.46			
CG10477	DRSC09732	0.41	0.5			
CG15673	DRSC04263	0.01	0.24			
CG33060	DRSC09939	0.14	0.18			
MtnC	DRSC22879	-0.41	0.55			
Ugt49B2	DRSC16049	0.23	0.14			
Prx4	DRSC08668	-0.18	0.18			
Etfb	DRSC16324	0.21	0.33			
CG12914	DRSC06229	0.19	0.22			
kmg	DRSC02829	0.06	0.22			
awd	DRSC16906	0.43	0.4			
CG17325 + CG42305	DRSC02602	0.13	0.26			
CG31861	DRSC21665	0.4	0.04			
Gr39a	DRSC01841	0.06	0.44			
Gr39a	DRSC01842	0	0.53			
CG3502	DRSC04381	0.28	0.39			
Elba2	DRSC00731	0.37	0.51			
EMC2B + EMC2A	DRSC15241	-0.25	-0.34			
CG1824	DRSC19796	0.18	0.24			
CG13272	DRSC02249	0.13	0.17			
CG13272	DRSC22910	-0.19	-0.11			
CG3021	DRSC18165	0.44	0.39			
CG3021	DRSC18652	0.52	0.5			
S-Lap4	DRSC10957	0.62	0.38			
Gfrl	DRSC15196	0.28	0.06			
Gfrl	DRSC15197	0.32	0.26			
Gfrl	DRSC15199	0.33	0.46			
Gfrl	DRSC15565	0.15	0.37			
Gfrl	DRSC15719	0.08	-0.28			
BaraA1 + BaraA2	DRSC05417	0.13	0.12			
RhoL	DRSC16824	0.08	0.31			
CG15650	DRSC04241	-0.43	0.04			
lawc	DRSC22531	1.22	0.85			
Ir40a	DRSC03732	0.05	0.11			
Ir40a	DRSC03733	-6.82	0.14			reduced secretion
CR42532	DRSC06713	0.47	0.42			
CG30284	DRSC22150	-1.29	0.3			
CG18747	DRSC15384	-0.1	-0.05			
Cul3	DRSC03537	-0.16	-0.12			
Cul3	DRSC21525	0.18	-0.17			
CG12689	DRSC17879	0.3	0.51			
CG32271	DRSC08198	0.12	0.14			
Coprox	DRSC01996	0.4	0.14	0.3	0.54	
cta	DRSC03769	0.34	0.3			
rdgC	DRSC11387	0.64	0.55			
CG14971	DRSC08430	0.01	0.45			
Obp99b	DRSC16264	-0.47	-0.68			

Next part (3 carried over from the part before).
gene knocked down	dsRNA	z-score, replicate 1	z-score, replicate 2	z-score, replicate 3	z-score, replicate 4	phenotype, replicate 1
rdgC	DRSC11387	0.64	0.55			
CG14971	DRSC08430	0.01	0.45			
Obp99b	DRSC16264	-0.47	-0.68			
CG42749	DRSC18091	0.43	0.54			
CG42749	DRSC18092	0.34	0.27			
CG1774	DRSC15258	0	0.2			
Dab	DRSC11140	0.71	0.49	0.19	0.59	
CG30423	DRSC04013	0.15				
CG12003	DRSC08214	0.72	0.47			
Syt12	DRSC19359	0.28	0.58			
CG7840	DRSC03075	0.02	0.2			
hpRNA:CR32205	DRSC09610	0.13	0			
hpRNA:CR32205	DRSC09890	0.1	0.01			
Cp19	DRSC11121	0.36	0.45			
inv	DRSC07633	0.56	0.44			
CG43253 (retired record)	DRSC09529	0.62	0.29			
Mctp	DRSC06510	0.43	0.19			
Mctp	DRSC22896	0.86	0.23			
Dronc	DRSC11231	0.25	0.28			
CG4074	DRSC11752	0.29	0.2			
RhoGAP100F	DRSC15409	0.17	0.25			
Ptp4E	DRSC18701	0.75	0.57			
Hr96	DRSC16707	0.18	0.17			
CG14627	DRSC18630	0.31	0.16			
Elba3	DRSC00469	0.24	0.26			
CG4949	DRSC19926	0.32	0.6			
CG5556	DRSC00687	0.14	0.42			
CG33477	DRSC22934	-0.39	-0.5			
Rcd4	DRSC02597	0.29	0.4			
THADA	DRSC19675	0.26	0.38			
gro	DRSC16962	0.24	0.33			
CG5002	DRSC06911	0.36	0.59			
sit	DRSC15760	-1.04	0.34			
CAH5	DRSC15372	-0.16	-0.79			
Kap3	DRSC19426	0.2	0.27			
CG6184	DRSC15986	0.31	0.47			
Aef1	DRSC11605	0.09	0.38			
CG14689	DRSC14912	0.2	0.09			
CG13898	DRSC08368	0.43	0.28			
CG9760	DRSC11101	0.24	0.33			
fd102C	DRSC17203	-0.08	-0.19			
CG8202	DRSC16396	0.23	0.67			
CG32100	DRSC09725	0.1	0.42			
CG32100	DRSC10331	0.21	0.28			
CG15878	DRSC08486	0.11	-0.18			
ninaG	DRSC16102	0.32	0.38			
B4	DRSC01868	0.11	0.17			
B4	DRSC03175	0.47	0.02			
Aos1	DRSC14113	-0.06	-0.25			
tim	DRSC00841	0.27	0.44			
thoc7	DRSC08512	0.06	0.26			
gus	DRSC04885	0.28	0.18			
gus	DRSC04886	0.36	0.45	0.09	0.36	
